Publication PMC11264951

T1: methyltransferase-like protein 16 (METTL16) (mouse (endogenous in P10 testes)) (UniProt Q9CQG2)
T1 sequence: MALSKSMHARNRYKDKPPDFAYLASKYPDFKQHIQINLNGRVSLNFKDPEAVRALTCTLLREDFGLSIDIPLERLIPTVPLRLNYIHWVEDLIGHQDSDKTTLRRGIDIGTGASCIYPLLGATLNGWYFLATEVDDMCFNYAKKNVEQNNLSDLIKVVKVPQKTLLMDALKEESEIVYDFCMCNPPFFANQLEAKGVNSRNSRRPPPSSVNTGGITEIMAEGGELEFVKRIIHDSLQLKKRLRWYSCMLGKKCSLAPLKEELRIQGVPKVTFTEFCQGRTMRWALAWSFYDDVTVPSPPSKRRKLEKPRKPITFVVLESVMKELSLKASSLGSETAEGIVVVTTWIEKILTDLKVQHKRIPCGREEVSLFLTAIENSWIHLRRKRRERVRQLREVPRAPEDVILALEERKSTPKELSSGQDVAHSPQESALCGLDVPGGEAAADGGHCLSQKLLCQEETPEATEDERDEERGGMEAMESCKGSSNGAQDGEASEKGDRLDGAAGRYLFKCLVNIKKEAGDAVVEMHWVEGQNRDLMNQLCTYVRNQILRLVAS

B1: YTHDC2 (protein, UniProt B2RR83 1-1445)
chain: MSRPSSVSPRPPAPSGGGTGGGGGGSGGGGGGGGGGPASCGPGGGGRAKGLKDIRIDEEVKIAVNIALERFRYGDQREMEFPSSLTSTERAFIHRLSQSLGLVSKSKGKGANRYLTVKKKDGSETAHAMMTCNLTHNTKHAVRSLIQRFPVTNKERTELLPKTERGNVFAVEAENREMSKTSGRLNNGIPQVPVKRGESEFDSFRQSLPVFEKQEEIVKIIKENKVVLIVGETGSGKTTQIPQFLLDDCFKNGIPCRIFCTQPRRLAAIAVAERVAAERRERIGQTIGYQIRLESRVSPKTLLTFCTNGVLLRTLMAGDSTLSTVTHVIVDEVHERDRFSDFLLTKLRDLLQKHPTLKLILSSAALDVNLFIRYFGSCPVIYIQGRPFEVKEMFLEDILRTTGYTNKEMLKYKKEKQREEKQQTTLTEWYSAQENTFKPESQRQRAVASVSEEYDLLDDGGDAVFSQLTEKDVNCLEPWLIKEMDACLSDIWLHKDVDAFAQVFHLILTENVSVDYRHSETSATALMVAAGRGFTSQVEQLISMGANVHSKASNGWMALDWAKHFGQTEIVDLLESYSASLEFGNLDESSLVQTNGNDLSAEDRELLKAYHHSFDDEKVDLDLIMHLLYNICHSCDAGAILIFLPGYDEIVGLRDRILFDDKRFADNTHRYQVFMLHSNMQTSDQKKVLKNPPAGVRKIILSTNIAETSITVNDVVFVIDSGKVKEKSFDALNFVTMLKMVWISKASAIQRKGRAGRCRPGICFRLFSRLRFQNMLEFQTPELLRMPLQELCLHTKLLAPVNCTIADFLMKAPEPPPALIVRNAVQMLKTIDAMDAWEDLTELGYHLADLPVEPHLGKMVLCAVVLKCLDPILTIACTLAYRDPFVLPTQASQKRAAMLCRKRFTAGTFSDHMALLRAFQAWQKARSDGWERAFCEKNFLSQATMEIIIGMRTQLLGQLRASGFVRARGGGDIRDVNTNSENWAVVKAALVAGMYPNLVHVDRENVILTGPKEKKVRFHPTSVLSQPQYKKIPPANGQAAAIQALPTDWLIYDEMTRAHRIANIRCCSAVTPVTVLVFCGPARLASNALQEPSSFRADGIPNDSSDSEMEDRTTANLAALKLDEWLNFKLEPEAASLLLQLRQKWHSLFLRRMRAPSKPWSQVDEATIRAIIAVLSTEEQSAGLQQPSGIGQRPRPMSSEELPLASSWRSNNSRKSTADTEFADGSTTGERVLMKSPSPALHPPQKYKDRGILHPKRSTDDRSDQSSVKSTDSSSYPSPCASPSPPSSGKGSKSPSPRPNMPIRYFIMKSSNLRNLEISQQKGIWSTTPSNERKLNRAFWESSMVYLVFSVQGSGHFQGFSRMSSEIGREKSQDWGSAGLGGVFKVEWIRKESLPFQFAHHLLNPWNDNKKVQISRDGQELEPQVGEQLLQLWERLPLGEKTTSD
B2: RNA binding motif protein 46 (RBM46) (protein, UniProt P86049 1-533)
chain: MNEENTDGTNGCSKVRTGTQNEAALLALMEKTGYNMVQENGQRKFGGPPPGWEGPPPPRGCEVFVGKIPRDMYEDELVPVFERAGKIYEFRLMMEFSGENRGYAFVMYTTKEEAQLAIRILNNYEIRPGKFIGVCVSLDNCRLFIGAIPKEKKKEEILDEMKKVTEGVVDVIVYPSATDKTKNRGFAFVEYESHRAAAMARRKLIPGTFQLWGHTIQVDWADPEKEVDEETMQRVKVLYVRNLMISTTEETIKAEFSKFKPGAVERVKKLRDYAFVHFFHREDAVAAMSVMNGKCIDGASIEVTLAKPVNKENTWRQHLNGQISPNSENLLVYANKEESHSKSLGKPPTLPTRLNGQHSPSPPEIERCTYPFFPGTKLTPISMYSLKSNHFNSAVMHLDYYCNKNNWAPPEYYLYSTTSQDGKVLLVYKIVIPAIANGSQSYFMPDKLCTTLEDAKELAAQFTLLHLDFNFRRSSINSLSPVSTTLSSGTPSMLPYTSRPSSYPSYPLSPTISLANGSHVGQRLYISNQASFF
B3: splicing factors 3b subunit 1 (SF3B1) (protein, UniProt Q99NB9 1-1304)
chain: MAKIAKTHEDIEAQIREIQGKKAALDEAQGVGLDSTGYYDQEIYGGSDSRFAGYVTSIAATELEDDDDDYSSSTSLLGQKKPGYHAPVALLNDIPQSTEQYDPFAEHRPPKIADREDEYKKHRRTMIISPERLDPFADGGKTPDPKMNARTYMDVMREQHLTKEEREIRQQLAEKAKAGELKVVNGAAASQPPSKRKRRWDQTADQTPGATPKKLSSWDQAETPGHTPSLRWDETPGRAKGSETPGATPGSKIWDPTPSHTPAGAATPGRGDTPGHATPGHGGATSSARKNRWDETPKTERDTPGHGSGWAETPRTDRGGDSIGETPTPGASKRKSRWDETPASQMGGSTPVLTPGKTPIGTPAMNMATPTPGHIMSMTPEQLQAWRWEREIDERNRPLSDEELDAMFPEGYKVLPPPAGYVPIRTPARKLTATPTPLGGMTGFHMQTEDRTMKSVNDQPSGNLPFLKPDDIQYFDKLLVDVDESTLSPEEQKERKIMKLLLKIKNGTPPMRKAALRQITDKAREFGAGPLFNQILPLLMSPTLEDQERHLLVKVIDRILYKLDDLVRPYVHKILVVIEPLLIDEDYYARVEGREIISNLAKAAGLATMISTMRPDIDNMDEYVRNTTARAFAVVASALGIPSLLPFLKAVCKSKKSWQARHTGIKIVQQIAILMGCAILPHLRSLVEIIEHGLVDEQQKVRTISALAIAALAEAATPYGIESFDSVLKPLWKGIRQHRGKGLAAFLKAIGYLIPLMDAEYANYYTREVMLILIREFQSPDEEMKKIVLKVVKQCCGTDGVEANYIKTEILPPFFKHFWQHRMALDRRNYRQLVDTTVELANKVGAAEIISRIVDDLKDEAEQYRKMVMETIEKIMGNLGAADIDHKLEEQLIDGILYAFQEQTTEDSVMLNGFGTVVNALGKRVKPYLPQICGTVLWRLNNKSAKVRQQAADLISRTAVVMKTCQEEKLMGHLGVVLYEYLGEEYPEVLGSILGALKAIVNVIGMHKMTPPIKDLLPRLTPILKNRHEKVQENCIDLVGRIADRGAEYVSAREWMRICFELLELLKAHKKAIRRATVNTFGYIAKAIGPHDVLATLLNNLKVQERQNRVCTTVAIAIVAETCSPFTVLPALMNEYRVPELNVQNGVLKSLSFLFEYIGEMGKDYIYAVTPLLEDALMDRDLVHRQTASAVVQHMSLGVYGFGCEDSLNHLLNYVWPNVFETSPHVIQAVMGALEGLRVAIGPCRMLQYCLQGLFHPARKVRDVYWKIYNSIYIGSQDALIAHYPRIYNDDKNTYIRYDLDYIL

target: T1, methyltransferase-like protein 16 (METTL16) (mouse (endogenous in P10 testes)); assay: affinity purification with mass spectrometry; P10 mouse testis lysates, IP with METTL16 antibody or IgG, Protein A magnetic beads, eluate analysed by LC-MS/MS (Q Exactive Plus, MaxQuant); repeated twice

binding, binds:
B1
B2
B3

These are yes or no findings as the source states them, for the method shown. Binding seen in cells or lysates may run through a third protein. Here binding means that the protein was enriched with, or labelled near, the bait; the list need not be complete.
